These are yes or no findings as the source states them, for the method shown. For some of these results: Binding can be weak; no strength is given.

Experimental findings from patent publication US20030144208A1 (ZymoGenetics, published 2003) are described below.

Test [1] concerns the target complement C1q (Sigma Co.). In words: quantitative ELISA.
Another test has as its target vitronectin. In words: ELISA on plated matrix protein, anti-FITC/biotin, streptavidin/HRP, chemiluminescence on film.
For test [2], the target named is human collagen Type IV (Chemicon International) (human). The test is described as above.
Test [3] concerns the target human collagen Type VI (Chemicon International) (human). In words: quantitative ELISA on plated collagen type VI. (In general: An ELISA detects its analyte on a solid surface through an enzyme-linked reagent.)
Test [4] deals with complement C1q (Sigma Co.). In words: quantitative ELISA as in Example 13; binding concentration dependent and saturable.
For test [5], the target named is human collagen Type V (Chemicon International) (human). Description: ELISA on plated matrix protein, 1.8 ug/ml zsig37-FITC, chemiluminescence on film.
Another test has as its target fibronectin. Described as above.
For test [6], the target named is human collagen Type VI (Chemicon International) (human). The description is as above.
For test [7] the target is unchanged. Description: quantitative ELISA, zsig37-FITC at 0.4 to 4 ug/ml on 10 ug plated collagen type VI, luminescence.
The target is the same in test [8]. In words: competition ELISA on plated collagen type VI; competitor zsig37-FITC at 0.4 ug/ml.

B1: zsig37-FITC (ligand)
chain: LVLSRVPHVQGEQQEWEGTEELPSPPDHAERAEEQHEKYRPSQDQGLPASRCLRCCDPGTSMYPATAVPQINITILKGEKGDRGDRGLQGKYGKTGSAGARGHTGPKGQKGSMGAPGERCKSHYAAFSVGRKKPMHSNHYYQTVIFDTEFVNLYDHFNMFTGKFYCYVPGLYFFSLNVHTWNQKETYLHIMKNEEEVVILFAQVGDRSIMQSQSLMLELREQDQVWVRLYKGERENAIFSEELDTYITFSGYLVKHATEP
modifications: FITC label (sites not given)
notes: 22-281 is used here; also called FITC labeled zsig37; FITC tagged Zsig37 protein
As to B1, the binding entry in [1] is “binds”; with vitronectin it was “no binding (tested: 1.8 µg/ml zsig37-FITC)”; in test [2], “no binding (tested: 1.8 µg/ml zsig37-FITC)”; in test [3], “binds”; in test [4], “binds”; in test [5], “binds”. Besides, the binding result (with fibronectin; in test [6]; in test [7]) was “binds” each time.

B2: zsig37 (unlabeled) (ligand)
chain: LVLSRVPHVQGEQQEWEGTEELPSPPDHAERAEEQHEKYRPSQDQGLPASRCLRCCDPGTSMYPATAVPQINITILKGEKGDRGDRGLQGKYGKTGSAGARGHTGPKGQKGSMGAPGERCKSHYAAFSVGRKKPMHSNHYYQTVIFDTEFVNLYDHFNMFTGKFYCYVPGLYFFSLNVHTWNQKETYLHIMKNEEEVVILFAQVGDRSIMQSQSLMLELREQDQVWVRLYKGERENAIFSEELDTYITFSGYLVKHATEP
As for B2, the binding entry in [8] is “binds”.
